Results are given in words; binding and its absence hold for the method and conditions named. Some entries that bind do so weakly or less than the wild type.
Key:
[1] = target: murine platelet glycoprotein Ib alpha (GPIb alpha), on mouse platelets (mouse) (UniProt O35930); experiment: platelet adhesion to surface-immobilized plasma VWF in flow, 1600 s^-1
[2] = target: murine platelet glycoprotein Ib alpha (GPIb alpha), on mouse platelets (mouse) (UniProt O35930); experiment: panel B: murine platelets on surface-immobilized plasma VWF in flow, 1600 s-1
[3] = target: murine platelet glycoprotein Ib alpha (GPIb alpha), on mouse platelets (mouse) (UniProt O35930); experiment: mouse whole blood perfused 4 min over surface-immobilized plasma VWF, 1600 s-1

Sequences of proteins named here, by UniProt entry; tags and fusion partners are left off. A change or cut given only in a name is not applied to a line headed by its entry. Residues count along the entry.
UniProt O35930, residues 17-734: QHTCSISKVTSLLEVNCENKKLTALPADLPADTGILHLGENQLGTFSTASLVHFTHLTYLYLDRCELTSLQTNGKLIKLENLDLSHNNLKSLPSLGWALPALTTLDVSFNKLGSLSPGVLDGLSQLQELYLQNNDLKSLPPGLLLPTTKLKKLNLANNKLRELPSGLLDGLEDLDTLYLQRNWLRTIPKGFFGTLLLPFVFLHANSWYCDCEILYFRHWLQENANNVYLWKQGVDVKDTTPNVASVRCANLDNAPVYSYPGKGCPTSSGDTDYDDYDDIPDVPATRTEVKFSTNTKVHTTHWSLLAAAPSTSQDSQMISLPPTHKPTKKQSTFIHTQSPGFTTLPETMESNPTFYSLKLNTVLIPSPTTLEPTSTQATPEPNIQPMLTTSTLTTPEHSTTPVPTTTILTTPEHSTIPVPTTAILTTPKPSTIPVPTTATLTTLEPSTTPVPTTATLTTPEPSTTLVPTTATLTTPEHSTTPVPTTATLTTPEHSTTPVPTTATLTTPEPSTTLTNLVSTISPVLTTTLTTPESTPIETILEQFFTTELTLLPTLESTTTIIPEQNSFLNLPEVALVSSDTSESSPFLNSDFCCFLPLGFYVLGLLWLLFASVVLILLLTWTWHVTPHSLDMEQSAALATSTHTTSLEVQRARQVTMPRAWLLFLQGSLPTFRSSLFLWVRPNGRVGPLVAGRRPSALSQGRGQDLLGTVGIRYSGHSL
UniProt Q8CIZ8: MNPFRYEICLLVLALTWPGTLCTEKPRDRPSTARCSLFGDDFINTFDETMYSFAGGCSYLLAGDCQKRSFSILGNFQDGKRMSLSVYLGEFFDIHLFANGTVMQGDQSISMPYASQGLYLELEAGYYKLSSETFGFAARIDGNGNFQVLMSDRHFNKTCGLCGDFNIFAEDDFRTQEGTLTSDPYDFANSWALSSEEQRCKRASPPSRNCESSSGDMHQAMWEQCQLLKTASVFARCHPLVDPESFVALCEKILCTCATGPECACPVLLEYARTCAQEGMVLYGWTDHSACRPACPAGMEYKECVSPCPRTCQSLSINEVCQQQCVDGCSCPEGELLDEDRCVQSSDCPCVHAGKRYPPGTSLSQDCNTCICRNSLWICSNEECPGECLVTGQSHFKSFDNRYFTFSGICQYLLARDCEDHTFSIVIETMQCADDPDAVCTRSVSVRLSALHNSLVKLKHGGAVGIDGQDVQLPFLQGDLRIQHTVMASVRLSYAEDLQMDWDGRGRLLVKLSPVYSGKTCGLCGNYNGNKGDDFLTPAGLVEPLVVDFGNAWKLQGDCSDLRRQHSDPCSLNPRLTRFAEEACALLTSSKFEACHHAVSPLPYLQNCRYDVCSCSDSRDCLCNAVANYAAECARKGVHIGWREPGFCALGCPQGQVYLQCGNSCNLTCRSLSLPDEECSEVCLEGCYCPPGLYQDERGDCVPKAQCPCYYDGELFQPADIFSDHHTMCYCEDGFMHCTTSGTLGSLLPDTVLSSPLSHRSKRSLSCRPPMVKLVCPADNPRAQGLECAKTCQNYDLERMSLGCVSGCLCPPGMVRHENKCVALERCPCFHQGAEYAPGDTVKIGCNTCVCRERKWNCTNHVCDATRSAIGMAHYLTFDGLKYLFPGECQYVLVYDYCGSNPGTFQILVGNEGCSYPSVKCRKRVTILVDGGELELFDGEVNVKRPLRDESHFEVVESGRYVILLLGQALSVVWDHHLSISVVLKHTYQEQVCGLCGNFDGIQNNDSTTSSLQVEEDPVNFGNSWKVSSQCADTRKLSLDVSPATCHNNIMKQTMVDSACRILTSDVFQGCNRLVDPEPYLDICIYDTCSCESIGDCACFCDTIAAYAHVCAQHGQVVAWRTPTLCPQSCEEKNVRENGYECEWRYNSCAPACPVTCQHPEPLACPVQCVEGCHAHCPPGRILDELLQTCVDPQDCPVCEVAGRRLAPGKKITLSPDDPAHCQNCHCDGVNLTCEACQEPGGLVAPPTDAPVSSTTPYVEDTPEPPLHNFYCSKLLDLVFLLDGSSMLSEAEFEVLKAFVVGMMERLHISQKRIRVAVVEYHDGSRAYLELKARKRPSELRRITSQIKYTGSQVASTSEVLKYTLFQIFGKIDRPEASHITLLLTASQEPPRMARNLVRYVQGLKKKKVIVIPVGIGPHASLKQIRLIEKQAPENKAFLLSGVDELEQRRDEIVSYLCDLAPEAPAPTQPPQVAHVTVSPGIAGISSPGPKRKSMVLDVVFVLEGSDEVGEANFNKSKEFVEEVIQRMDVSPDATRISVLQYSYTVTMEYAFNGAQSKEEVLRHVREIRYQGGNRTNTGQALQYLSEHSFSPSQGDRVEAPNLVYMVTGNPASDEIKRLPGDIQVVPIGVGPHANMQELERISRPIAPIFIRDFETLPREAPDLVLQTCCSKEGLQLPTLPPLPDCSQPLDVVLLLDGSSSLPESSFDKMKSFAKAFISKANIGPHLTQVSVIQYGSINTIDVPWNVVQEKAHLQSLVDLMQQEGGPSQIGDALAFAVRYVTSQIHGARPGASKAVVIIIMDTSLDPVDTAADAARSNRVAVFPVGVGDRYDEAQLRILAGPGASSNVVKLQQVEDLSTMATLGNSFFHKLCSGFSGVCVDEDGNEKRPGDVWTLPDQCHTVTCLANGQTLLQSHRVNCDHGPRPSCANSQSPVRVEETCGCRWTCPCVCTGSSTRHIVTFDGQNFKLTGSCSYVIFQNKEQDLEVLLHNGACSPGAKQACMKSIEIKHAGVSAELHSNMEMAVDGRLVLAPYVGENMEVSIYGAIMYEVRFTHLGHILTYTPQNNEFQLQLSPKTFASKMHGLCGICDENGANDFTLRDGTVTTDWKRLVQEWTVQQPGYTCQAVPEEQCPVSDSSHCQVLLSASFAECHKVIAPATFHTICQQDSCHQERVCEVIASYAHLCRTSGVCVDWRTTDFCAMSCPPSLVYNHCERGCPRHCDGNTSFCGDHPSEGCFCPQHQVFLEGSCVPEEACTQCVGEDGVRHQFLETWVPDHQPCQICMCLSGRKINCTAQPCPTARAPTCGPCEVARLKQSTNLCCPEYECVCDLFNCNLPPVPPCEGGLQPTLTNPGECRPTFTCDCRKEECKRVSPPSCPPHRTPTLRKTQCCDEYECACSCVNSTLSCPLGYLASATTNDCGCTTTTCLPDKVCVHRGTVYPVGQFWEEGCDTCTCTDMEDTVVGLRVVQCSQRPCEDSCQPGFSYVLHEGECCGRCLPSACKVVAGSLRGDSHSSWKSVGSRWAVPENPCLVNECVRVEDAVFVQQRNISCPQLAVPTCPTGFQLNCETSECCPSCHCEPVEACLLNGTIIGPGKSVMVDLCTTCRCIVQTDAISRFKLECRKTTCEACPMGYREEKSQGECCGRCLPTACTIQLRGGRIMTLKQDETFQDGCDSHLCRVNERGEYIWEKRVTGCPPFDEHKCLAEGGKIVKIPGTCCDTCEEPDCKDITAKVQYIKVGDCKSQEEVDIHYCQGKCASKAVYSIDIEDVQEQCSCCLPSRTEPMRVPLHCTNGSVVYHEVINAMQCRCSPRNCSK

binding [1]: binds
binding [2]: binds
binding [3]: binds
Substance: murine plasma VWF, wild type (from UniProt Q8CIZ8 764-2813) (ligand)

Source: US20090202429A1
